Data from patent US10688131B2, “Peptides and scaffolds for use in immunotherapy against head and neck squamous cell carcinoma and other cancers” (Immatics Biotechnologies GmbH, priority 2016, dated 2020).

Columns and labels:
additional tumor types = test: LC-MS presentation of peptides on additional tumor types versus normal tissues; set-up: species or system human; conditions: for Other relevant organs/diseases: additional tumor types where over-presented on more than 5% of measured tumor samples, or presented on more than 5% with ratio of geometric means tumor vs normal larger than 3 (Table 4A); for Additional Entities: additional tumor types, same criteria, other normal tissue panel (Table 4B)
[1] = test system: head and neck squamous cell carcinoma samples; test: Identification and label-free LC-MS quantitation of HLA-presented peptides (presentation profile) on HNSCC versus normal tissues; set-up: species or system human; key: very highly over-presented on tumors compared to a panel of normal tissues (+++); highly over-presented on tumors compared to a panel of normal tissues (++); over-presented on tumors compared to a panel of normal tissues (+); conditions: presentation score: over-presentation on head and neck squamous cell carcinoma tumors compared to a panel of normal tissues

Substance	Other relevant organs/diseases (additional tumor types)	Peptide Presentation [1]	Additional Entities (additional tumor types)
4 (ILDINDNPPV; listed as Homo sapiens) [compound 4]	BRCA, Esophageal Cancer, Urinary bladder cancer	+++	
6 (ALYDAELSQM; listed as Homo sapiens) [compound 6]		+++	Esophageal Cancer
7 (ALEEANADLEV; listed as Homo sapiens) [compound 7]	Esophageal Cancer, Urinary bladder cancer	+++	
8 (AQLNIGNVLPV; listed as Homo sapiens) [compound 8]	Melanoma, Esophageal Cancer	+++	Urinary bladder cancer
9 (STASAITPSV; listed as Homo sapiens) [compound 9]	Melanoma	+++	Esophageal Cancer
10 (TLWPATPPKA; listed as Homo sapiens) [compound 10]	Gallbladder Cancer, Bile Duct Cancer	+++	
11 (VLFSSPPVI; listed as Homo sapiens) [compound 11]	Melanoma	+++	
15 (SMLNNIINL; listed as Homo sapiens) [compound 15]	Urinary bladder cancer	+	
16 (ALKDSVQRA; listed as Homo sapiens) [compound 16]	AML, BRCA, Melanoma, Esophageal Cancer, Urinary bladder cancer, Uterine Cancer	+++	HCC
17 (SIWPALTQV; listed as Homo sapiens) [compound 17]	SCLC, AML, BRCA, Melanoma, Uterine Cancer, Gallbladder Cancer, Bile Duct Cancer	+++	
19 (ALAKLLPLL; listed as Homo sapiens) [compound 19]	Esophageal Cancer, Urinary bladder cancer, Uterine Cancer	+++	
20 (YLINEIDRIRA; listed as Homo sapiens) [compound 20]	NSCLC, Urinary bladder cancer	+++	
21 (FLHEPFSSV; listed as Homo sapiens) [compound 21]	Urinary bladder cancer	+++	
23 (SLPESGLLSV; listed as Homo sapiens) [compound 23]	Esophageal Cancer	+++	
24 (LLIAINPQV; listed as Homo sapiens) [compound 24]	AML, Urinary bladder cancer	+++	
27 (YLAEPQWAV; listed as Homo sapiens) [compound 27]	Esophageal Cancer, Urinary bladder cancer	+++	
29 (RLLPDLDEV; listed as Homo sapiens) [compound 29]	AML	+++	
31 (HLATVKLLV; listed as Homo sapiens) [compound 31]	Urinary bladder cancer, Uterine Cancer	+++	
32 (IQDAEGAIHEV; listed as Homo sapiens) [compound 32]	NHL, Melanoma, Esophageal Cancer, Urinary bladder cancer	+++	
37 (ILLEDVFQL; listed as Homo sapiens) [compound 37]	Gallbladder Cancer, Bile Duct Cancer	+++	
39 (LLPEDDTRDNV; listed as Homo sapiens) [compound 39]	BRCA, Esophageal Cancer, Urinary bladder cancer	+++	
41 (RLNGEGVGQVNISV; listed as Homo sapiens) [compound 41]	Esophageal Cancer	+++	
42 (ALYTSGHLL; listed as Homo sapiens) [compound 42]	Esophageal Cancer, Gallbladder Cancer, Bile Duct Cancer	+++	
43 (AVLGGKLYV; listed as Homo sapiens) [compound 43]	CLL, NHL, AML, Melanoma, Uterine Cancer	+++	RCC, GC, HCC
45 (GLIEWLENTV; listed as Homo sapiens) [compound 45]	SCLC, OC, Urinary bladder cancer	+++	HCC
46 (GLISSIEAQL; listed as Homo sapiens) [compound 46]	Esophageal Cancer, Urinary bladder cancer, Uterine Cancer	+++	

Substance	Other relevant organs/diseases (additional tumor types)	Peptide Presentation [1]	Additional Entities (additional tumor types)
47 (QLLEGELETL; listed as Homo sapiens) [compound 47]	Urinary bladder cancer, Uterine Cancer	+++	
48 (YLLDYPNNL; listed as Homo sapiens) [compound 48]	NHL, BRCA, Melanoma, Esophageal Cancer, Urinary bladder cancer, Uterine Cancer, Gallbladder Cancer, Bile Duct Cancer	+++	
49 (YLWEAHTNI; listed as Homo sapiens) [compound 49]	Esophageal Cancer, Uterine Cancer	+++	
50 (ALSNVVHKV; listed as Homo sapiens) [compound 50]	GC, BRCA, Esophageal Cancer, Urinary bladder cancer	+++	NSCLC
51 (FLIPSIIFA; listed as Homo sapiens) [compound 51]	Urinary bladder cancer, Uterine Cancer	+++	
52 (LLFTGLVSGV; listed as Homo sapiens) [compound 52]	Esophageal Cancer	+++	
54 (RLSGEGVGPV; listed as Homo sapiens) [compound 54]	Esophageal Cancer	+++	
56 (FLQLETEQV; listed as Homo sapiens) [compound 56]	BRCA, Melanoma, Urinary bladder cancer, Uterine Cancer	+++	
58 (SLSDIQPCL; listed as Homo sapiens) [compound 58]	Brain Cancer, BRCA, Esophageal Cancer, Urinary bladder cancer, Uterine Cancer	+++	
60 (SLGNFKDDLL; listed as Homo sapiens) [compound 60]	NHL, Esophageal Cancer, Urinary bladder cancer	+++	NSCLC
61 (FVAGYIAGV; listed as Homo sapiens) [compound 61]	NSCLC, SCLC, RCC, Brain Cancer, GC, CLL, NHL, Esophageal Cancer, Gallbladder Cancer, Bile Duct Cancer	+++	HCC
62 (ILSSACYTV; listed as Homo sapiens) [compound 62]	RCC, BRCA, Esophageal Cancer	+++	
63 (ALMDEINFMKM; listed as Homo sapiens) [compound 63]	NSCLC, SCLC, NHL	++	
67 (AQLNLIWQL; listed as Homo sapiens) [compound 67]	SCLC, Melanoma, OC, Uterine Cancer, Gallbladder Cancer, Bile Duct Cancer	+	
69 (YVMESMTYL; listed as Homo sapiens) [compound 69]	Urinary bladder cancer, Gallbladder Cancer, Bile Duct Cancer	+	
70 (FLFPAFLTA; listed as Homo sapiens) [compound 70]	AML, Gallbladder Cancer, Bile Duct Cancer	+++	
71 (SLFPYVVLI; listed as Homo sapiens) [compound 71]	Melanoma	+++	
72 (SLDGNPLAV; listed as Homo sapiens) [compound 72]	Esophageal Cancer, Uterine Cancer, Gallbladder Cancer, Bile Duct Cancer	+++	
73 (YIDPYKLLPL; listed as Homo sapiens) [compound 73]	CLL, NHL, AML, Melanoma	+++	BRCA, Urinary bladder cancer
74 (SLTSFLISL; listed as Homo sapiens) [compound 74]	Urinary bladder cancer	+++	
75 (ALASAPTSV; listed as Homo sapiens) [compound 75]	BRCA, Esophageal Cancer, Uterine Cancer, Gallbladder Cancer, Bile Duct Cancer	+++	HCC
78 (VLYGDVEEL; listed as Homo sapiens) [compound 78]	CLL, Urinary bladder cancer, Gallbladder Cancer, Bile Duct Cancer	+++	
79 (GLHQDFPSVVL; listed as Homo sapiens) [compound 79]	NHL, BRCA, Uterine Cancer	+	
81 (VLAENPDIFAV; listed as Homo sapiens) [compound 81]	SCLC, MCC, Melanoma, Urinary bladder cancer	+++	
83 (QLLQYVYNL; listed as Homo sapiens) [compound 83]	SCLC, NHL, AML, Uterine Cancer	+++	
85 (QLIEKITQV; listed as Homo sapiens) [compound 85]	SCLC, NHL, Melanoma, Urinary bladder cancer, Gallbladder Cancer, Bile Duct Cancer	+++	
